In publication PMC6565675, “Cryo-electron microscopy structure of an archaeal ribonuclease P holoenzyme” (Nature Communications, 2019):
Results are given in words; binding and its absence hold for the method and conditions named. Some binding calls cover weakened binding; strength is not graded here.

Biological target: T1, Methanocaldococcus jannaschii RNase P protein subunit Rpp30 (Methanocaldococcus jannaschii) (UniProt Q58539)
T1 sequence: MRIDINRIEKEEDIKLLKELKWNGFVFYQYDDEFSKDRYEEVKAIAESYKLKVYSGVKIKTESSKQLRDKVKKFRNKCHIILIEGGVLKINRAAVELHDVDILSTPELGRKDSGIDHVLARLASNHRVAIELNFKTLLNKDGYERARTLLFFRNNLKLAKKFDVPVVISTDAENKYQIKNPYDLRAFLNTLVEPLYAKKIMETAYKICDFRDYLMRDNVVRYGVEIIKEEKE
Assay: cryo-EM structure; MjaRNase P holoenzyme reconstituted in vitro from RPR and the purified protein components, purified by SEC; alone (4.6 Å) and with E. coli tRNA^Tyr (4.3 Å); buffer exchanged on the grid to 40 mM Hepes, pH 7.5, 200 mM NaCl; C2 symmetry applied; both purified

binding: binds
B1: Methanocaldococcus jannaschii RNase P protein subunit Pop5 (protein, UniProt Q57917 1-134)
chain: MIEMLKTLPPTLREKKRYIAFKILYDEELKEGEVVNLIRKAVLEYYGSWGTSKANPWLVYYDFPYGILRCQRDNVDYVKASLILIREFKEKPVNIICLGVSGTIRKAKIKFLGIKKPKRWFVIRRERLKAKKQK
